Laboratory results reported in publication PMC12192239.
Results are given in words; binding and its absence hold for the method and conditions named. In cells and extracts the contact can be indirect. Here binding means that the protein was enriched with, or labelled near, the bait; the list need not be complete.

Target: GST-GhA01EP1 (GST-GhA01EP1-pGS21T) (upland cotton (Gossypium hirsutum))
Test: affinity purification with mass spectrometry; GST-GhA01EP1 (or GST) on GST-beads incubated with crude protein extract of GhA01EP1-transgenic Arabidopsis whole seedlings; washed twice with TNT Buffer (20 mmol/L Tris pH 8.0, 125 mmol/L NaCl, 0.5% TritonX-100); SDS-PAGE band cut, LC-MS/MS (TripleTOF 5600+, Mascot 2.3, Uniprot database); only the target purified

B1: SCPL35, serine carboxypeptidase-like protein (endogenous, Arabidopsis) (enzyme, UniProt Q9LEY1 21-480)
chain: RKPEKKVTISSSGRKEDDLVTGLPGQPPVNFKHYAGYVNLGPEQKQKALFYWFFEAQQNSSRRPLVLWLNGGPGCSSIAYGAAQELGPFLVHDNGGKLTYNHFSWNKEANMLFLEAPVGVGFSYTNNSMDLQKLGDEVTASDSLAFLINWFMKFPEFRSSEFYISGESYAGHYVPQLAEVIYDRNKKVTKDSSINLKGFMIGNAVINEATDMAGLVDYAWSHAIISDEVHTSIHGSCSFEEDTTNKTEQCYNNFKGFMDAYNDIDIYSIYTPVCLSSLLSSSPRKPKIVVSPRLLTFDDLWDKFPAGYDPCTESYAENYFNRKDVQVALHANVTNLPYPYSPCSGVIKRWSDAPSTMIPIIQKLLTGGLRIWIYSGDTDGRVPVTSTRYSIKKMGLKVESPWRSWFHKSQVAGWVETYAGGLNFVTVRGAGHQVPALAPAQSLTLFSHFISSVPLPSKRF
binding: binds
